Assay results from patent publication US20230174473A1, “ANTIMICROBIAL AND ANTIVIRAL SULFUR CONTAINING GLYCEROL MONOESTER DERIVATIVES” (priority 2020, published 2023).

Tested on: Lipase (glycerol ester hydrolase)
Assay: Lipase (glycerol ester hydrolase) assay, esterase resistance
Assay type: biochemical, Staphylococcus aureus
Conditions: 500 ug/ml compound in agarose slide, 24 hours at 37° C.
Protocol: Protocol for Lipase (glycerol ester hydrolase) assay: • 1. Two separate samples of lipase at 25 ug/ml were prepared. • 2. Microscope slides were made up with 500 ug/ml of GML, SGML, or S2ML compounds. • These slides contained 0.85% agarose (Difco) heat solubilized into PBS (0.005 M NaPO4 pH 7.2; 0.15MNaC1). • 3. The mixtures contained the compounds above their solubility limits, so they were vortexed, and 4.5 ml of the cloudy mixtures was spread onto microscope slides. • 4. The slides remained at room temperature for 1 hour to allow the agarose to solidify. • 5. The, 4 mm wells were punched into the agarose, twice per slide. • 6. 20 ul of the Lipase was added to each well. • 7. The slides were incubated for 24 hours at 37° C. • 8. The diameter squared was determined for each. This allows determination of hydrolysis of compound. • GML: 15 mm; 15 mm diameters (diameters squared=225 mm) • SGML: 12 mm; 13 mm diameters (diameters squared=144 mm and 169 mm for an average of 156.5 mm) • S2GML: 0 mm; 0 mm diameters (diameters squared=0) • 10. Diameter squared is used to the determination would be a straight line with a standard curve. • Set GML at 100% • 11. SGML is 70% as much as GML • 12. S2GML is 0% of GML

Q: For `CCCCCCCCCCCC(=O)OCC(O)CO` (centres unmarked) [GML, glycerol monolaureate], which “diameters (hydrolysis zone)” value (20 ul lipase 25 ug/ml per well, two lipase samples) is on record?
A: 15 mm

Q: And the diameters squared (lipase 25 ug/ml)?
A: 225 mm
